The record followed here is patent US10118131B2, “Method for preventing microbial growth on a filtration membrane” (KEMIRA OYJ, priority 2011, dated 2018).

This data set can be described thus: Laboratory scale continuous filtration experiment, PFA added continuously into feed. As to conditions: 19.8 ppm active substance continuously in feed, 15 bar, sea salt 2 g/l, 20° C. On the procedure: The impact of PFA on membrane was further studied by a laboratory scale continuous filtration experiment. The type of membrane used in the experiment was brackish water membrane (FilmTec BW30LE).
The continuous filtration has been done in parallel. From a single brackish water tank the water was pumped to two parallel lines with flat sheet cells having similar brackish water membrane. In one line PFA was added continuously into feed and in other line (control) there was no PFA addition. The filtration conditions were as follows: pressure 15 bar, salt (sea salt): 2 g/l, Temperature: 20° C., flow rate: 48 l/h, PFA dosing rate: 6.5 g/h equilibrium solution having PFA active substance concentration 14 weight-% (=19.8 ppm active substance/l of brackish water). Flux and conductivity of permeate and concentrate were monitored and collected over time (for 30 days).

Consider `O=COO` [Performic acid, performic acid], for which the Initial salt rejection was 98%. In addition, the Final salt rejection (30 days) is reported as 98%.
